The whole screen tested about 140,000 compounds, of which about 4,300 (3.1%) were called active. The shares of active, inactive and inconclusive entries below differ from those in the screen.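 The calls were made as follows: active = readout at or below -70, meaning at least 70% loss of cells showing the perinucleolar compartment, a nuclear body marking cancer cells; inconclusive = readout between -30 and a set limit; inactive = the rest.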
test: High Content Assay for Compounds that inhibit the Assembly of the Perinucleolar Compartment; conditions: PC3M PTB-GFP, PNC prevalence imaging, 16 h; at 10 µM; stronger effect = lower value;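 also: plate controls were DMSO wells for no effect and camptothecin positive control wells for full effect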
Method in brief: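 PC3M cells stably expressing PTB-GFP, 750–1000 cells/well, treated 16 h at 37 °C with compound (23 nl of library stock), in duplicate. After paraformaldehyde fixation and Hoechst stain, imaged at 20x; PNC prevalence scored by image analysis.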

SMILES	activity change (PNC), negative = inhibition
CC(C)CCNc1nc2c(cc1C#N)COC(C)(C)C2	inconclusive: -30.2%
O=C(N/N=C/C=C/c1ccccc1)c1n[nH]c2c1CCC2	active: -98.2%
CCC(=O)Nc1ccc(S(=O)(=O)N2CCOCC2)cc1	active: -80.4%
Cc1cc(Cl)ccc1NC(=S)Nc1ccccn1	inactive: -6.41%
C=C(C)CSc1nc2nc(C)c(Br)cc2[nH]1	inactive: 28.2%
CCn1c2ccccc2c2cc(NC(=O)c3cc(OC)cc(OC)c3)ccc21	active: -97.5%
O=C(Cn1cc2c(n1)CCCC2)Nc1cc(-c2cccc(Cl)c2)no1	inconclusive: -41.1%
COc1ccc(-n2nc(C(=O)Nc3ccc4c(c3)OCO4)c3ccccc3c2=O)c(OC)c1	inconclusive: -55.8%
COc1ccc(N2CCN(C(=O)CN3CCN(C(c4ccccc4)c4ccccc4)CC3)CC2)cc1	inconclusive: -36.8%
COc1ccccc1N/C(=N/S(=O)(=O)c1ccc(C)cc1)c1ccc(Cl)cc1	inactive: 14.1%
CCOc1cc(C(=S)N2CCOCC2)ccc1OC	inconclusive: -36.6%
CN(CCNC(=O)C1CCN(S(=O)(=O)N2CCOCC2)CC1)CCc1ccccc1	inconclusive: -40.6%
Cn1c(=O)c2c(nc(N3CCCCCC3)n2CC(O)COc2ccc(Cl)cc2)n(C)c1=O (stereo unspecified)	inconclusive: -45.1%
O=C1CCCCN1CCc1c[nH]c2ccccc12	inconclusive: -46.4%
CC(Sc1nnnn1-c1ccccc1)C(=O)Nc1ccc(Cl)cn1 (stereo unspecified)	inactive: 12.9%
CCCOC(=O)Nc1ccccc1C(N)=O	inconclusive: -42.3%
Cc1cc(C(=O)OCC(=O)N2c3ccccc3NC(=O)C2(C)C)c(C)n1-c1ccccc1	inconclusive: -49.7%
Clc1cccc(CSC2=NCCCN2)c1	inconclusive: -44.9%
Cc1ccc(SCC(=O)Nc2ccccc2C(=O)O)cc1	inactive: -5.44%
O=C(Cc1c(F)cccc1Cl)NCC1CCCO1 (stereo unspecified)	inactive: -5.97%
O=C1c2ccccc2C(=O)N1CCSc1ccccc1	inconclusive: -41%
COc1ccc(CCNC(=O)c2ccccc2N(C)S(=O)(=O)c2ccccc2)cc1	inconclusive: -40.8%
CCCCN(Cc1ccccc1)S(=O)(=O)c1ccc2[nH]c(=O)oc2c1	inactive: 14.9%

SMILES	activity change (PNC), negative = inhibition
O=C(NCCc1nc2ccccc2[nH]1)/C(=C/c1ccco1)NC(=O)c1ccco1	inconclusive: -35.4%
Cc1noc(C)c1COc1cccc(C(=O)Nc2ccccc2N2CCOCC2)c1	inconclusive: -52.5%
Cc1cccc(NC(=O)c2ccccc2OCC(=O)c2ccccc2)c1	inconclusive: -66.6%
O=C(Nc1ccccc1C(=O)NCc1ccco1)c1ccccc1	inconclusive: -30.2%
O=C1c2ccc3c4c(ccc(c24)C(=O)N1NC(=O)C(F)(F)F)CC3	inconclusive: -61.1%
Cc1cc(C)n(-c2ccc(C(=O)Nc3ccc(S(=O)(=O)NCc4ccco4)cc3)cc2)n1	inconclusive: -33.7%
O=C(/C=C/c1ccccc1)/C=C/c1ccccc1	inconclusive: -30.2%
S=C(Nc1cccc(Cl)c1)Nc1cccc2cnccc12	inactive: 13.4%
Nc1nonc1-n1nnc(C(=O)N/N=C/c2ccccc2)c1CSc1ccc(Cl)cc1	inconclusive: -37.4%
Cc1ccc(NS(=O)(=O)c2cc(C(=O)Nc3cccc([N+](=O)[O-])c3)ccc2C)cc1	inconclusive: -66.9%
CC(=N)C1=C(O)CC(C)(C)CC1=O	inactive: 38.9%
O=C(Oc1cccc2cccnc12)c1ccco1	inactive: -20.6%
CCN(CC)S(=O)(=O)c1cc(C(=O)OCC(=O)Nc2cccc(Br)c2)ccc1F	inactive: 20.4%
Cc1ccc(S(=O)(=O)NN=C2CCN(Cc3ccccc3)CC2)cc1	inactive: 0.0778%
O=C(CN(C(=O)Cn1nnc(-c2ccc(F)cc2)n1)C1CCCC1)NC1CCCC1	inconclusive: -42.1%
Cc1ccc(NC(=O)COC(=O)CNC(=O)c2ccc(Br)cc2)c(C)c1	inconclusive: -35.9%
COc1cc2c(cc1OC)C(Cc1ccc(O)cc1)NCC2 (stereo unspecified)	inactive: 63.2%
COC(=O)/C=c1\sc2n(c1=O)C(C)=CC(C)(C)N=2	inconclusive: -65.5%
O=C(CSc1nc2ccccc2s1)NC(=O)NCc1ccco1	inactive: -26.1%
Cc1ccc(CN(C(=O)c2sc3ccccc3c2Cl)C2CCS(=O)(=O)C2)cc1 (stereo unspecified)	inconclusive: -44%
CSCC(=O)NS(=O)(=O)c1ccc(C)cc1	inactive: -3.34%
COCC(C)NC(=O)NC1(C(F)(F)F)Oc2ccc(Cl)cc2O1 (stereo unspecified)	inconclusive: -63.7%
CC1=C(C(=O)Nc2ccccn2)C(c2ccc(Br)cc2)NC(=S)N1 (stereo unspecified)	inconclusive: -30.8%

SMILES	activity change (PNC), negative = inhibition
CCOc1cc(C)c(Cl)cc1S(=O)(=O)n1cnc2ccccc21	active: -107%
O=C1OC(c2ccc3c(c2)OCO3)N(C(=O)c2ccc(Cl)c(Cl)c2)c2ccccc21 (stereo unspecified)	inconclusive: -36.8%
Cc1ccc(-c2nnc(SCC(=O)Nc3ccccc3N3CCOCC3)o2)cc1	inconclusive: -37.4%
Nc1nc(SCc2ccc(Cl)cc2)[nH]c(=O)c1-c1ccccc1	inconclusive: -71.6%
CC(=O)Oc1cccc(N2C(=O)C3C4C=CC(C4)C3C2=O)c1 (stereo unspecified)	inactive: -1.05%
Cc1ccc(Nc2nc(N)nc(CSC(=S)N3CCN(c4ccccc4)CC3)n2)cc1	inconclusive: -45.4%
O=C1CC(c2ccccc2Cl)C2=C(COC2=O)N1 (stereo unspecified)	inconclusive: -45.2%
COc1ccc(C2C(C(=O)Nc3ccccn3)=C(C)Nc3ncnn32)c(OC)c1 (stereo unspecified)	inactive: -20.4%
CN(C)CCCN(C(=O)c1cc2ccccc2oc1=O)c1nc2ccc(F)cc2s1	inconclusive: -68%
COc1ccc(NC(=O)N(C2CCCCC2)C(C)c2cccnc2)c(OC)c1 (stereo unspecified)	active: -84.9%
CC1CCc2nc(NC(=O)c3ccc(S(=O)(=O)N4CCCc5ccccc54)cc3)sc2C1 (stereo unspecified)	inconclusive: -33.5%
CCC(=O)Nc1ccc(S(=O)(=O)Nc2cccc(C)c2)cc1OC	inconclusive: -50.2%
CCCCSc1c(C)c2cc3c(cc2[nH]c1=O)OCO3	inconclusive: -31.2%
COc1cccc(C2SCC(=O)N2c2ccc(C)cc2)c1OC (stereo unspecified)	inconclusive: -41.6%
COc1ccccc1S(=O)(=O)Cc1ccc(C(=O)NC(C)c2ccc3c(c2)OCCO3)o1 (stereo unspecified)	inconclusive: -39.3%
COc1ccccc1NC(=O)CN1C(=O)CCS(=O)(=O)c2ccccc21	inconclusive: -64.5%
Cc1cnc(C(=O)NCCc2ccc(S(=O)(=O)NC(=O)NC3CCCCC3)cc2)cn1	inconclusive: -37.9%
CCOc1[nH]n(-c2ccc(Cl)cc2)c(=O)c1C=Nc1ccc(C)cc1	inconclusive: -36.7%
O=C(NC(=S)NCCc1ccccc1)c1ccccc1	inconclusive: -44.4%
O=C1c2ccccc2C(O)(Cc2ccccc2)N1C1CCCCC1 (stereo unspecified)	inconclusive: -65.9%
O=C(CSc1nnc2ccccn12)Nc1ncc(Cl)cc1Cl	inactive: -6.78%
CCOc1cc(C(=S)N2CCCC2)ccc1OCC(=O)Nc1c(C)cc(C)cc1C	inconclusive: -37.6%
COc1ccc(C(=O)N2CCCN(C)CC2)cc1S(=O)(=O)N1CCCc2ccccc21	inconclusive: -66%

Rewritten with bars between the fields: part of the list above
SMILES | activity change (PNC), negative = inhibition
O=C(Cn1cc2c(n1)CCCC2)Nc1cc(-c2cccc(Cl)c2)no1 | inconclusive: -41.1%
COc1ccc(-n2nc(C(=O)Nc3ccc4c(c3)OCO4)c3ccccc3c2=O)c(OC)c1 | inconclusive: -55.8%
COc1ccc(N2CCN(C(=O)CN3CCN(C(c4ccccc4)c4ccccc4)CC3)CC2)cc1 | inconclusive: -36.8%
COc1ccccc1N/C(=N/S(=O)(=O)c1ccc(C)cc1)c1ccc(Cl)cc1 | inactive: 14.1%

Next results follow.

SMILES	activity change (PNC), negative = inhibition
O=C(CCN1CCN(c2ccccc2F)CC1)Nc1ccc2c(c1)OCO2	inconclusive: -41.8%
O=C(NCc1cccs1)c1cccc(S(=O)(=O)N2CCCCC2)c1	inconclusive: -48.6%
CC(C)CCCCCCNC(=S)Nc1ccc(S(=O)(=O)N2CCOCC2)cc1	inconclusive: -30.1%
O=C(CSc1ccccc1)Nc1cccnc1	inconclusive: -40%
O=C(Cn1nnc2ccccc2c1=O)N1CCCc2ccccc21	inconclusive: -59.8%
O=S(=O)(c1cccc(NC(=S)N2CCN(c3cccc(Cl)c3)CC2)c1)C(F)F	inactive: 56.2%
C/C(=N\NC(=O)c1c(Br)c(C)nn1C)c1cccc(NC(=O)c2ccccc2C)c1	inconclusive: -62.9%
Cc1nc(NC(=O)/C=C/c2ccccc2)sc1C(=O)Nc1ccc(Cl)cc1	inactive: -5.16%
Cc1ccccc1-n1nc2c(c1NC(=O)COc1ccc(Cl)cc1)CS(=O)C2 (stereo unspecified)	inconclusive: -32.8%
Cc1cc(C(=O)CSc2ncn[nH]2)c(C)n1-c1cccc(S(=O)(=O)N2CCOCC2)c1	inactive: -4.09%
CN=c1scc(C)n1/N=C/c1ccc(O)cc1O	inactive: 56%
O=C(O)Cn1nnc(-c2cccs2)n1	inactive: 10.3%
COc1ccc(CCNC(=O)C2CCCN(S(=O)(=O)c3cccc4nonc34)C2)cc1OC (stereo unspecified)	inconclusive: -33.2%
CCOc1cc(C(=O)Nc2ccc(S(=O)(=O)N3CCOCC3)cc2)cc(OCC)c1OCC	inactive: -10.5%
CCN(CC)S(=O)(=O)c1ccc(-c2nnco2)cc1	active: -100%
COC(=O)c1ccc(-c2ccco2)n1Cc1ccccc1Cl	inactive: -3.8%
CC(=O)N(Cc1ccc2c(c1)OCO2)C1CC(=O)N(CCc2ccccc2)C1=O (stereo unspecified)	inconclusive: -31%
NS(=O)(=O)c1ccc(NC(=S)NCC2CCCO2)cc1 (stereo unspecified)	inactive: 52.7%
COc1ccc(C)cc1S(=O)(=O)Nc1ccc(F)c(Cl)c1	inconclusive: -31.9%
N#CC(C(=O)NC1CC1)c1nc2ccccc2nc1N1CCN(C/C=C/c2ccccc2)CC1 (stereo unspecified)	inconclusive: -64.6%
Cn1ccnc1SCC(=O)Nc1ccc2ccccc2c1	inconclusive: -76.4%
CCC1(C)Cc2c(C#N)c(N)sc(=S)c2CO1 (stereo unspecified)	inactive: 1.26%

From PubChem BioAssay AID2417 (National Center for Advancing Translational Sciences (NCATS), 2010)
